Results deposited as PubChem BioAssay AID652272 (Drosophila RNAi Screening Center, 2013).
In all, the deposit lists about 21,000 reagents; this is an unselected part of those with a known target gene and a result. In the full data, 503 (2.4%) were called active. 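Raw plate light values, not normalised; calls rest on replicate z-scores that were not deposited; hits include reporter decreases as well as increases.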 Not stated in the record: the amount of reagent, the time to read-out.

Assay: 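Genes whose knock-down decreases or increases Hedgehog reporter output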 (primary screen)
System: Drosophila clone 8 (Cl8) cells
Knock-down reagent: long dsRNA against Drosophila genes
Measured: 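Plate reader light from a firefly reporter under a ptc promoter fragment that responds to Hedgehog, with Renilla light as transfection reference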
Reading the numbers: firefly Hh reporter signal: higher = more ptc reporter light; Renilla reference signal: higher = more Renilla control light
Call rule: 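Called a hit if the two-replicate mean z-score lies below -2 or above +3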
Calls: active = hit: reporter lowered or raised; inactive = not a hit

no.	Target gene	DRSC id	firefly Hh reporter signal, replicate 1	firefly Hh reporter signal, replicate 2	firefly Hh reporter signal, replicate 3	Renilla reference signal, replicate 1	Renilla reference signal, replicate 2	Outcome
1	Fer1 (GeneID 2768661)	DRSC12507	87184	1.16e5		3801	3557	inactive
2	Fer1 (GeneID 2768661)	DRSC12555	1.09e5	1.23e5		4144	3785	inactive
3	CG15865 (GeneID 32641)	DRSC19733	76901	2.89e5		2907	11232	inactive
4	CG8042 (GeneID 38886)	DRSC09676	1.03e5	54064		4612	2562	inactive
5	CG5958 (GeneID 34022)	DRSC02915	77144	52722		2288	5660	inactive
6	Fmo-2 (GeneID 35561)	DRSC04983	1.12e5	87971		4224	3636	inactive
7	CG5003 (GeneID 43344)	DRSC15694	72992	89760		1500	2707	inactive
8	CG33494 (GeneID 2768686)	DRSC13715	44087	2.97e5		10352	6201	inactive
9	fd96Cb (GeneID 43011)	DRSC16947	4.07e5	80531		21424	2730	inactive
10	Cyp4g1 (GeneID 30986)	DRSC18459	87060	78209		2119	2583	inactive
11	CCT6 (GeneID 32518)	DRSC20095	79506	71740		2563	2256	inactive
12	ArfGAP3 (GeneID 40487)	DRSC11794	1.27e5	1.14e5		5040	4692	inactive
13	CG11808 (GeneID 36687)	DRSC06088	1.40e5	1.27e5		4850	4797	inactive
14	Hecw (GeneID 31905)	DRSC18261	61898	1.58e5		1548	5784	inactive
15	Hecw (GeneID 31905)	DRSC18276	91610	2.63e5		2421	9484	inactive
16	kar (GeneID 45883)	DRSC14496	1.13e5	56176		4392	2707	inactive
17	Tom40 (GeneID 44978)	DRSC18796	68649	2.37e5		2841	10477	inactive
18	wuc (GeneID 36401)	DRSC06152	57819	54760		1337	4013	inactive
19	Vago (GeneID 32040)	DRSC19833	87216	1.64e5		2659	7149	inactive
20	GstT2 (GeneID 246386)	DRSC06244	1.03e5	54473		2699	4833	inactive
21	CG12971 (GeneID 40365)	DRSC11681	95238	1.22e5		3536	3441	inactive
22	CG7634 (GeneID 40394)	DRSC11843	74211	82376		2595	2344	inactive
23	dany (GeneID 246593)	DRSC04141	1.11e5	59466		2912	4903	inactive
24	CG4465 (GeneID 42374)	DRSC15584	7.87e5	1.53e5		40716	4196	inactive
25	SMSr (GeneID 38823)	DRSC10998	1.62e5	1.24e5		6645	4853	inactive
26	SMSr (GeneID 38823)	DRSC10999	71873	46892		9493	3424	inactive
27	CG5435 (GeneID 34657)	DRSC02860	1.21e5	53353		2811	4812	inactive
28	coro (GeneID 35596)	DRSC05007	1.30e5	1.12e5		5792	4359	inactive
29	CG14238 (GeneID 43195)	DRSC14732	66096	82040		1511	1869	inactive
30	CG34429 (GeneID 5740606)	DRSC10120	41101	47204	42803	4843	2940	inactive
31	CG14383 (GeneID 41593)	DRSC14841	73216	80940		1207	1478	inactive
32	raptor (GeneID 31543)	DRSC18359	44171	1.31e5		1570	4650	inactive
33	Dh44-R1 (GeneID 36601)	DRSC07172	1.04e5	91593		4785	3973	inactive
34	LysRS (GeneID 31904)	DRSC17824	63088	45777		1716	1152	inactive
35	CG43121 (GeneID 12798254)	DRSC10457	77665	55926		3197	2485	inactive
36	Jhbp1 (GeneID 40613)	DRSC12167	1.11e5	1.37e5		4137	2645	inactive
37	Pcyt1 (GeneID 117353)	DRSC08157	1.03e5	74704		4618	4012	inactive
38	Csl4 (GeneID 34548)	DRSC02944	1.33e5	84016		4177	7376	inactive
39	PMCA (GeneID 43787)	DRSC17113	4.13e5	1.90e5		21760	4240	inactive
40	PMCA (GeneID 43787)	DRSC17114	4.41e5	2.16e5		22736	4565	inactive
41	PMCA (GeneID 43787)	DRSC17154	1.10e5	55097		2566	1853	inactive
42	CG9497 (GeneID 33884)	DRSC03234	83812	88484		3780	3581	inactive
43	CG9485 (GeneID 37435)	DRSC04557	1.62e5	69275		6153	2960	inactive
44	Eb1 (GeneID 35584)	DRSC05016	1.20e5	47821		2737	3202	inactive
45	CG13126 (GeneID 34323)	DRSC02222	75264	36259		1782	3461	inactive
46	TTLL3A (GeneID 33947)	DRSC02143	89075	53648		2413	5051	inactive
47	Hmt4-20 (GeneID 31015)	DRSC18482	1.06e5	73428		1964	1755	inactive
48	Nse1 (GeneID 33938)	DRSC02147	1.12e5	87580		3979	3067	inactive
49	TM4SF (GeneID 37786)	DRSC04661	1.20e5	96432		4140	3712	inactive
50	CG7300 (GeneID 34472)	DRSC03044	55876	1.11e5		2828	4045	inactive
51	Dysb (GeneID 40052)	DRSC10730	1.22e5			1792	2615	inactive
52	CG33257 (GeneID 2768960)	DRSC09917	1.04e5			4044	3032	inactive
53	CG15465 (GeneID 31434)	DRSC18048	1.07e5	3.08e5		3989	10779	inactive
54	Vps8 (GeneID 38735)	DRSC09705	53168	75996		6016	4317	inactive
55	CG8944 (GeneID 32517)	DRSC20128	1.42e5	7.41e5	1.26e5	3129	5943	inactive
56	I-t (GeneID 41414)	DRSC16713	74000	91829		2389	2656	inactive
57	CG17163 (GeneID 3354988)	DRSC20901	87020	2.55e5		1933	10704	inactive

Entries above whose gene name starts with V or v (2):
Target gene	DRSC id	firefly Hh reporter signal, replicate 1	firefly Hh reporter signal, replicate 2	firefly Hh reporter signal, replicate 3	Renilla reference signal, replicate 1	Renilla reference signal, replicate 2	Outcome
Vago (GeneID 32040)	DRSC19833	87216	1.64e5		2659	7149	inactive
Vps8 (GeneID 38735)	DRSC09705	53168	75996		6016	4317	inactive
